# Source: patent publication US20180282402A1
# By UniProt entry, the sequences of proteins in these tests, tags left out. Where a name states a change or a piece, a line headed by the entry shows the natural chain unless it says otherwise. Chains listed by the source or under a name are the forms on record and can include a tag or linker. Residues count along the entry.
# UniProt O60462, residues 23-864: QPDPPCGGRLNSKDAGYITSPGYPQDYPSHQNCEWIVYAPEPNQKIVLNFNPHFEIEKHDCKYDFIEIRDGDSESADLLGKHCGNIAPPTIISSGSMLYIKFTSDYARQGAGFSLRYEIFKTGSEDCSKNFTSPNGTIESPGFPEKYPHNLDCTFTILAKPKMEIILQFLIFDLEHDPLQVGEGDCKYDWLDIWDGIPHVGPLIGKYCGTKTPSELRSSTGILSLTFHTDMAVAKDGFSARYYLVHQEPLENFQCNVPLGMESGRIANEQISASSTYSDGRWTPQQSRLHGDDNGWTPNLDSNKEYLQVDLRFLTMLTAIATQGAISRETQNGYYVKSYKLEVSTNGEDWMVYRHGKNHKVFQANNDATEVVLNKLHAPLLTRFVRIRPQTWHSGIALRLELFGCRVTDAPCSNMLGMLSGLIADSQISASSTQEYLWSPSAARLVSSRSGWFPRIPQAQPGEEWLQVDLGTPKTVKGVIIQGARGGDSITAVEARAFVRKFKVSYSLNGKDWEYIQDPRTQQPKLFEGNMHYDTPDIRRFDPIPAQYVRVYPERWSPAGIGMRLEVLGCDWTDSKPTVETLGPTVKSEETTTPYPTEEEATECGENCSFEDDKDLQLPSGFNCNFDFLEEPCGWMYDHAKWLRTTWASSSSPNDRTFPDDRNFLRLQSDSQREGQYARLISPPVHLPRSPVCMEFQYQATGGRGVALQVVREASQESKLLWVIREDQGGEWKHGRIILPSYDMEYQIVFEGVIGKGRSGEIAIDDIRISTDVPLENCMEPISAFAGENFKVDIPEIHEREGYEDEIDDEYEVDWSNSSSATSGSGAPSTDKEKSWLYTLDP
# VEGF-A165 (P15692, form named): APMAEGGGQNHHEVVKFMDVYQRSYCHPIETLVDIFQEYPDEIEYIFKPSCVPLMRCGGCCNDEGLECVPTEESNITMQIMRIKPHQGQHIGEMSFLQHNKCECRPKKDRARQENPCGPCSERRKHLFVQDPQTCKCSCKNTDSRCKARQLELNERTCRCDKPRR
# UniProt P49767, residues 103-227: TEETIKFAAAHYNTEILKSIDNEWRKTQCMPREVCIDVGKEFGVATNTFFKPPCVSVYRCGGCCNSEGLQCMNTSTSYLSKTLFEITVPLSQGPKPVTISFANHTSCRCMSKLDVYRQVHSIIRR
# No constants are given. Whether binding was seen depends on the method and setting. Some results given as binding are weak or reduced against the parent protein; the word gives no strength.
# Target: NRP2-Fc (R&D Systems #2215-N2) (human) (UniProt O60462)
# Test: SPR; column Binding to NRP2 observed by SPR
row,binding,Substance
1,binds,VEGF-A165 (from UniProt P15692 27-191) (ligand)
2,binds,VEGF-C (from UniProt P49767 103-227) (ligand)
